According to the supplement of paper PMC12067093, “Discovery and optimisation of a covalent ligand for TRIM25 and its application to targeted protein ubiquitination” (Chemical Science, 2025):
The list shows a part of the results.

Amino acid sequences for entries named in this document (tags omitted). A change or cut given only in a name is not applied to a line headed by its entry.
UniProt O14841: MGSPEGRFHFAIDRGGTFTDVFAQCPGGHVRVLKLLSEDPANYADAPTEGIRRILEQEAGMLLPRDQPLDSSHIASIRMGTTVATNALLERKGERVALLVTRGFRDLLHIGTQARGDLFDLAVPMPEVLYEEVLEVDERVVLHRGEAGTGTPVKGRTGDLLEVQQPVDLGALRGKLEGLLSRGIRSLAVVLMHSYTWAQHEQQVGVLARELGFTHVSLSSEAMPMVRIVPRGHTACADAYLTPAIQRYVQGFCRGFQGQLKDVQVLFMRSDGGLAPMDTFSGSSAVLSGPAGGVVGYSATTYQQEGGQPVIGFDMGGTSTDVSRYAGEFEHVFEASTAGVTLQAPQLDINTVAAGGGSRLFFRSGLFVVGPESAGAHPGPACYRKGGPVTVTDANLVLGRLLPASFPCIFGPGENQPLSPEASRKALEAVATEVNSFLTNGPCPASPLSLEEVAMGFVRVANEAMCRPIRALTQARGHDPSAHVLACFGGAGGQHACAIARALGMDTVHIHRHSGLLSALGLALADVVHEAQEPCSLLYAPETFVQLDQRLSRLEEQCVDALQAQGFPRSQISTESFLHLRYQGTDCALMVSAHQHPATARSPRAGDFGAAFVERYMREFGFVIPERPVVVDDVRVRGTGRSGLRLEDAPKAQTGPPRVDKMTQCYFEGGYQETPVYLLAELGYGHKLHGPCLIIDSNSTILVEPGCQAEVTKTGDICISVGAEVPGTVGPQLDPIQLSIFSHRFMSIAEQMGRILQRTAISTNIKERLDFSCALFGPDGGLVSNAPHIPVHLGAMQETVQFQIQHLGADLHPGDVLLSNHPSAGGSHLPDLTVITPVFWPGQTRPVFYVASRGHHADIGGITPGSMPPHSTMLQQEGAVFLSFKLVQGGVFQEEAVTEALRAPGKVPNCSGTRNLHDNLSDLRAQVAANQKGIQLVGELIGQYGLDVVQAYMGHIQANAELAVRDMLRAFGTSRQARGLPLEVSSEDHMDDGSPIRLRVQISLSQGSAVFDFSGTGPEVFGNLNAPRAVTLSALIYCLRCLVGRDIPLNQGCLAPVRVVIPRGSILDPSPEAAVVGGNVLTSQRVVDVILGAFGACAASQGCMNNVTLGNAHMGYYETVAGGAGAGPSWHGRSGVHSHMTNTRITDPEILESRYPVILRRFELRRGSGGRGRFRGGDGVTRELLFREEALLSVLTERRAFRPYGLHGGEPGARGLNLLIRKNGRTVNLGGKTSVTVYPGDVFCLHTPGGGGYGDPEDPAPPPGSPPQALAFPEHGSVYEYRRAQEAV
UniProt O43913: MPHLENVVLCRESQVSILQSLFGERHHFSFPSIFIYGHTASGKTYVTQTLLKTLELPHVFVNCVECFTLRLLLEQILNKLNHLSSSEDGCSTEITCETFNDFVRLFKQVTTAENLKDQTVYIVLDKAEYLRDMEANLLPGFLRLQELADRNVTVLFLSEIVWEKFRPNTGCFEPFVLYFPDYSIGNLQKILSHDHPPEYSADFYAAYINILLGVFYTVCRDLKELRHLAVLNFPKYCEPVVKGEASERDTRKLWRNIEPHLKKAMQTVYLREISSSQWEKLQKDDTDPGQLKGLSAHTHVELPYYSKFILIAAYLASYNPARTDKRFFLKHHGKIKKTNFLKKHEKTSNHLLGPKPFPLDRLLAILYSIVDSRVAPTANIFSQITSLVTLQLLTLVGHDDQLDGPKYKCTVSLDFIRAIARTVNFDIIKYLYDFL
UniProt Q9Y2J8, whole entry, looked up: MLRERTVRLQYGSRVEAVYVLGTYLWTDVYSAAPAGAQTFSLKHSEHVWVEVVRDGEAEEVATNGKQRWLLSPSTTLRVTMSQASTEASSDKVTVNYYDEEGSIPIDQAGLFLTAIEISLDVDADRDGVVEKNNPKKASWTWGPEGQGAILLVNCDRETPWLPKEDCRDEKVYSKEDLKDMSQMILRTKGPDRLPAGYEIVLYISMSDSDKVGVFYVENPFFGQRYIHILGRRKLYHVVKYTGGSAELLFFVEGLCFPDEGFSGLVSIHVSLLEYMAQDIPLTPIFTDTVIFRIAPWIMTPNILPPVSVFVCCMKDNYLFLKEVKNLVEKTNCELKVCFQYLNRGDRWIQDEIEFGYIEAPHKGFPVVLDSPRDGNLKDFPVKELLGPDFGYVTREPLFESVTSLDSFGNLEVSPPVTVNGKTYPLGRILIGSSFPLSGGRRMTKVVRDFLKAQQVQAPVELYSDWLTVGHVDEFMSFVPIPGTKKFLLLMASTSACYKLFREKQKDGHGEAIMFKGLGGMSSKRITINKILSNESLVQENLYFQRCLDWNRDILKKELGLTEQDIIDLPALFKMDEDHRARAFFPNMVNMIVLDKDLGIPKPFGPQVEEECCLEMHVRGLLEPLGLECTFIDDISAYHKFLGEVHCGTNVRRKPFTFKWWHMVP
UniProt P22234: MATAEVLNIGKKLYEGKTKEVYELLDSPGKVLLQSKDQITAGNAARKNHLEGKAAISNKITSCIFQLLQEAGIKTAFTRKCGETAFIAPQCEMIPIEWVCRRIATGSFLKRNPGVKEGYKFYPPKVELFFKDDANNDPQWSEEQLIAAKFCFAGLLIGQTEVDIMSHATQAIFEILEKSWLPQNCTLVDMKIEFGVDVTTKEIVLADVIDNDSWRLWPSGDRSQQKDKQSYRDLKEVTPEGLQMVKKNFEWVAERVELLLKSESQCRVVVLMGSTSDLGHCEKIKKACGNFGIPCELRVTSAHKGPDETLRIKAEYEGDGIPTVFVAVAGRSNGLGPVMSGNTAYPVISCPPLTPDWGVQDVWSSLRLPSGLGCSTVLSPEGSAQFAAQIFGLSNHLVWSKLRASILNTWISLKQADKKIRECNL
UniProt O96013: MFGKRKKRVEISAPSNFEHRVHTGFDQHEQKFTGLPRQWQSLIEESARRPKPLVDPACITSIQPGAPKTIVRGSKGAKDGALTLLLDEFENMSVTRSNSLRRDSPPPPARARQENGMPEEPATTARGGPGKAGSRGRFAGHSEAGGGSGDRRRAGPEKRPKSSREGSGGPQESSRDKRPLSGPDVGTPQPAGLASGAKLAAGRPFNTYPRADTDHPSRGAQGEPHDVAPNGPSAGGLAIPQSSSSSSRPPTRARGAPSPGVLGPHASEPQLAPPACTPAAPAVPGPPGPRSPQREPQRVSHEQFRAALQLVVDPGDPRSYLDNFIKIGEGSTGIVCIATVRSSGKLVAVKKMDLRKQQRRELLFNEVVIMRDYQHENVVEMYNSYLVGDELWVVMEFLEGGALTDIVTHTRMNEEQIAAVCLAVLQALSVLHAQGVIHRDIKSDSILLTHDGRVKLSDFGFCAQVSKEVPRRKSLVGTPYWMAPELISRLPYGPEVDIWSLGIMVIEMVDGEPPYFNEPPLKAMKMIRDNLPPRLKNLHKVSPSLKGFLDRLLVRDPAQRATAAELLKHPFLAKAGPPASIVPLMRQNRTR
UniProt Q504Q3: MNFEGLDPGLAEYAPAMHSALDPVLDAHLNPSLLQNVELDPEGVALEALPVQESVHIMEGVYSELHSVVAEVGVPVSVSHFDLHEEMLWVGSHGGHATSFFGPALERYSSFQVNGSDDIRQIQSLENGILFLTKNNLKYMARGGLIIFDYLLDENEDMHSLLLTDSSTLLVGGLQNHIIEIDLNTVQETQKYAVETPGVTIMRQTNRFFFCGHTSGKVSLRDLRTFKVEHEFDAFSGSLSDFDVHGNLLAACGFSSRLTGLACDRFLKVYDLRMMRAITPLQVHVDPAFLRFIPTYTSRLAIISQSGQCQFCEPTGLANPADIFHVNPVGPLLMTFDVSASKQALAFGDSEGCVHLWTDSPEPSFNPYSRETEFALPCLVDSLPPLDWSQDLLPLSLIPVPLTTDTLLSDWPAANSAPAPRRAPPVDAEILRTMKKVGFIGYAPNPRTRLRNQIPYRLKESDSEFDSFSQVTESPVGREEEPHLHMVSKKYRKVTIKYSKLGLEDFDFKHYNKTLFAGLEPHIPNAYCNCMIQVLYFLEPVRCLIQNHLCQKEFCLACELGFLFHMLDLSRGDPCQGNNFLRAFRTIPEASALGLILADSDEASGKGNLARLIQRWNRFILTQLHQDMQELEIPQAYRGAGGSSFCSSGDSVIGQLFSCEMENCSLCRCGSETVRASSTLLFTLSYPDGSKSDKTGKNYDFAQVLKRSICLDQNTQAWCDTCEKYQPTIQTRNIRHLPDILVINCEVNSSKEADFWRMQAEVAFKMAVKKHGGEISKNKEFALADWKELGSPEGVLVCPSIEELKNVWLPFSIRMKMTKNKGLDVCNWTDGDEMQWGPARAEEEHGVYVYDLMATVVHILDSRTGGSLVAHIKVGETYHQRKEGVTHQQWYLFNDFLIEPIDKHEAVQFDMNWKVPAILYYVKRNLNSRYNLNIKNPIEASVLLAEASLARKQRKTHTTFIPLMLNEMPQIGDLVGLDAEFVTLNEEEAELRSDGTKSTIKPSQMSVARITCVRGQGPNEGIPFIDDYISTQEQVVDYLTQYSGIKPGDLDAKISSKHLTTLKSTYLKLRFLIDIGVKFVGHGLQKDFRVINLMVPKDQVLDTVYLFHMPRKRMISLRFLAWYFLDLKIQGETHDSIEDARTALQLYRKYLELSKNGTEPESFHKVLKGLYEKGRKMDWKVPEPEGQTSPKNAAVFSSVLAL
UniProt Q86W56: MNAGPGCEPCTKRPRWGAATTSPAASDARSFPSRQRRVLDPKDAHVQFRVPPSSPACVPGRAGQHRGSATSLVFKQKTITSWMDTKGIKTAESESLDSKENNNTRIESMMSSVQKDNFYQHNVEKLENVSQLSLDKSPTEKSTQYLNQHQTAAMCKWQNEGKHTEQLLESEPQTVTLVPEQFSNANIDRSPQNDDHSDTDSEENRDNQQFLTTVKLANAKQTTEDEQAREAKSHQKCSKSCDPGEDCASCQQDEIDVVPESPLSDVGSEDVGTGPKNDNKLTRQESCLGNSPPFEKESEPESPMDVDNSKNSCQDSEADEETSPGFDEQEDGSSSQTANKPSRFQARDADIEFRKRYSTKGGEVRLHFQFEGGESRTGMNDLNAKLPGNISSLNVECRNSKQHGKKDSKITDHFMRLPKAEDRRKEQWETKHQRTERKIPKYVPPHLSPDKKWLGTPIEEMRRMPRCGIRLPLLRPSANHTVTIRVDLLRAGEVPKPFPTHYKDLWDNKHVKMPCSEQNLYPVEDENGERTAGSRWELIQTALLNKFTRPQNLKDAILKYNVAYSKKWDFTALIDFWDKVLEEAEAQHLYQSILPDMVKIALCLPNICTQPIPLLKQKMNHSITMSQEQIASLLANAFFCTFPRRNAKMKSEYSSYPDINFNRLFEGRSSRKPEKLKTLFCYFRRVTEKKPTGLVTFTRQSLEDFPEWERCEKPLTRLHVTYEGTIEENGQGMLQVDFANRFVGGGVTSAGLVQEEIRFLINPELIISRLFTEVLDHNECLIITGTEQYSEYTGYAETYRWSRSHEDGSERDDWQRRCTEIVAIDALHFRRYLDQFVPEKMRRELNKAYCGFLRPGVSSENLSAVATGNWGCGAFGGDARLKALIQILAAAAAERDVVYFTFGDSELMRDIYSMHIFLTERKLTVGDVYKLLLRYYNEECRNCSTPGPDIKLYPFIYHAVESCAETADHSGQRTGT
UniProt P13674: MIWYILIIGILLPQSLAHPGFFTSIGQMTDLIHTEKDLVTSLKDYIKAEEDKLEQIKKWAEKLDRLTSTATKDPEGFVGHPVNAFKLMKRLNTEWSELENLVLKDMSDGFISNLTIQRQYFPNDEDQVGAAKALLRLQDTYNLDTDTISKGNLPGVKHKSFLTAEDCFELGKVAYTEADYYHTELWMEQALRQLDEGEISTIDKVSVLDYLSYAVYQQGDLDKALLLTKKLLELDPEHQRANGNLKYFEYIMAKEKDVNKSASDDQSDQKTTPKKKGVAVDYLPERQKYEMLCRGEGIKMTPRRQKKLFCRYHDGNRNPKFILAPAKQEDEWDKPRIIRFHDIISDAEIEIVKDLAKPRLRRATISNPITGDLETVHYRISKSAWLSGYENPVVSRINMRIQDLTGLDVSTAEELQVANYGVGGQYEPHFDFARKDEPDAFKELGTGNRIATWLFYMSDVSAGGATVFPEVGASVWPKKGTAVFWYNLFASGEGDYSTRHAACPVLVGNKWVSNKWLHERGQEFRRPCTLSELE
UniProt Q9NWT1: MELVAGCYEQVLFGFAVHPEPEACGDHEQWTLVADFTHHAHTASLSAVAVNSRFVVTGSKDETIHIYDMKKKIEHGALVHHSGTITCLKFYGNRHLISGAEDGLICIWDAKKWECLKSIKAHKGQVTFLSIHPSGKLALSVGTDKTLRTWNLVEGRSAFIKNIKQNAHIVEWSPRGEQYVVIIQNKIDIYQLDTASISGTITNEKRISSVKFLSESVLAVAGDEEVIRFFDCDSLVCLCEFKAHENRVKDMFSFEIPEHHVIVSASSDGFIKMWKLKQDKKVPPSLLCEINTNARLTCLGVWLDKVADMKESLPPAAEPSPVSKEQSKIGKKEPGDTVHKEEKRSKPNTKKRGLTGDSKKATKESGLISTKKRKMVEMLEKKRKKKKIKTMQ

Compound: CC1Cc2ccccc2N1C(=O)C1CCCN(C1)C(=O)CCl (mixture of isomers) [TRIM25 ligand 11 (diastereomer mixture)]
Test: probe-labelled cysteine peptide fold change vs DMSO (competition) (log2 fold change); higher = less target engagement (more negative = stronger competition)
Settings: THP-1, incubation time: 4 h
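Further: competitive chemoproteomic profiling in live THP-1 cells with an iodoacetamide desthiobiotin (IA-DTB) probe, comparing probe-labelled peptide intensities in compound-treated cells against DMSO-treated controls.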

Target | probe-labelled cysteine peptide fold change (10 µM) | probe-labelled cysteine peptide fold change (50 µM)
PAFAH2_Q99487_298_ICAQHEQSR (UniProt Q99487) | 0.179 | 0.197
OR4D11_Q8NGI4_72_LHTPMYFLLRNLAILDICFSSTTAPKVLLDLLSK (UniProt Q8NGI4) | -0.157 | -0.144
OPLAH_O14841_408_LLPASFPCIFGPGENQPLSPEASRK (UniProt O14841) | -0.0608 | -0.0504
ORC1_Q13415_806_SGLEEATFQQIYSQHVALCR (UniProt Q13415) | 0.0742 | 0.0533
PAPSS1_O43252_127_LFADAGLVCITSFISPYTQDR (UniProt O43252) | 0.147 | 0.0753
PARN_O95453_302_LVIGHNMLLDVMHTVHQFYCPLPADLSEFK (UniProt O95453) | -0.037 | -0.277
PALD1_Q9ULE6_382_AITACAELHDLK (UniProt Q9ULE6) | -0.0113 | 0.0917
PACSIN2_Q9UNF0_38_LCSDLMNCLHER (UniProt Q9UNF0) | 0.115 | 0.0274
PARP10_Q53GL7_514_SLLGSISCHVLCLEHPGSAR (UniProt Q53GL7) | 0.0103 | -0.0332
PAPOLA_P51003_677_TKTEEDETSEDANCLALSGHDK (UniProt P51003) | -0.114 | -0.269
OPTN_Q96CV9_239_NYFEHEELTVSQLLLCLR (UniProt Q96CV9) | -0.0336 | 0.0031
PAFAH1B2_P68402_206_ICKPLHELIMQLLEETPEEK (UniProt P68402) | -0.486 | -0.692
P3H1_Q32P28_600_KDDSHPVHVDNCILNAETLVCVK (UniProt Q32P28) | 0.0447 | 0.088
P3H1_Q32P28_282_QNCVTELASHPSR (UniProt Q32P28) | 0.18 | 0.126
P4HB_P07237_343_ITEFCHR (UniProt P07237) | -0.0335 | -0.0224
OSBPL5_Q9H0X9_253_LGTCKPGR (UniProt Q9H0X9) | -0.106 | -0.239
PARP14_Q460N5_739_QVWDSVCVK (UniProt Q460N5) | 0.116 | -0.0561
ORC5_O43913_63_TLELPHVFVNCVECFTLR (UniProt O43913) | 0.267 | 0.215
PAFAH1B1_P43034_252_MVRPNQDGTLIASCSNDQTVR (UniProt P43034) | 0.142 | 0.0289
OPA1_O60313_801_CNEEHPAYLASDEITTVR (UniProt O60313) | -0.314 | 0.0179
OPLAH_O14841_25_GGTFTDVFAQCPGGHVR (UniProt O14841) | -0.206 | 0.286

Target | probe-labelled cysteine peptide fold change (10 µM) | probe-labelled cysteine peptide fold change (50 µM)
PARP14_Q460N5_1274_ECSQQAQQR (UniProt Q460N5) | 0.0962 | -0.0412
OSBPL11_Q9BXB4_34_NSSCGGGISSSSSSR (UniProt Q9BXB4) | -0.0951 | -0.19
P4HB_P07237_400_NVFVEFYAPWCGHCK (UniProt P07237) | -0.0822 | -0.184
OPLAH_O14841_236_GHTACADAYLTPAIQR (UniProt O14841) | 0.00254 | 0.159
PAG1_Q9NWQ8_179_DSSSQENMVEDCLYETVK (UniProt Q9NWQ8) | -0.115 | -0.549
PARK7_Q99497_46_VTVAGLAGKDPVQCSR (UniProt Q99497) | -0.13 | -0.213
PADI2_Q9Y2J8_612_PFGPQVEEECCLEMHVR (UniProt Q9Y2J8) | -0.0491 | 0.0649
ORC5_O43913_10_PHLENVVLCR (UniProt O43913) | -0.0683 | -0.0422
OVCA2_Q8WZ82_64_SDFGSCPPEEQPR (UniProt Q8WZ82) | -0.166 | -0.219
PARP1_P09874_256_VCSTNDLK (UniProt P09874) | 0.00261 | 0.0164
PARP10_Q53GL7_1004_YDSAVDCICQPSIFVIFHDTQALPTHLITCEHVPR (UniProt Q53GL7) | 0.108 | -0.334
PAIP1_Q9H074_222_LCNYLSHHLTISPQSGNFR (UniProt Q9H074) | 0.19 | -0.0132
PABPC4_Q13310-3_488_VGSECPDR (UniProt Q13310) | -0.118 | -0.166
OGT_O15294_323_LCPTHADSLNNLANIK (UniProt O15294) | 0.0479 | 0.0711
OSBP_P22059_224_VEDLSTCNDLIAK (UniProt P22059) | 0.0397 | -0.0272
PABPC1_P11940_128_ALYDTFSAFGNILSCK (UniProt P11940) | -0.0161 | -0.0248
OS9_Q13438_73_QRYECR (UniProt Q13438) | 0.00781 | 0.194
PAICS_P22234_81+91+100_CGETAFIAPQCEMIPIEWVCR (UniProt P22234) | -0.11 | 0.0467
OSBPL1A_Q9BXW6_39_NEVIADINCK (UniProt Q9BXW6) | 0.0705 | 0.177
OSBPL8_Q9BZF1_729_NEEWSCK (UniProt Q9BZF1) | 0.0927 | 0.108
PAK4_O96013_336_IGEGSTGIVCIATVR (UniProt O96013) | 0.257 | 0.411

Target | probe-labelled cysteine peptide fold change (10 µM) | probe-labelled cysteine peptide fold change (50 µM)
PACS2_Q86VP3_880_HFPICIFGHSK (UniProt Q86VP3) | -0.203 | -0.036
PAPSS1_O43252_8_MEIPGSLCK (UniProt O43252) | 0.0757 | 0.118
PAN2_Q504Q3_263_LTGLACDR (UniProt Q504Q3) | 0.0543 | 0.17
PARN_O95453_205_NLDLEPCTGFQR (UniProt O95453) | 0.0315 | 0.114
PAN2_Q504Q3_745_HLPDILVINCEVNSSK (UniProt Q504Q3) | -0.127 | -0.02
PAN3_Q58A45_838_DHLFHQVTEAGAPWIDLSHIISCLNK (UniProt Q58A45) | 0.057 | 0.184
P4HB_P07237_312_EECPAVR (UniProt P07237) | -0.0591 | 0.0132
OPA1_O60313_853_TALNHCNLCR (UniProt O60313) | -0.00121 | 0.349
PARP10_Q53GL7_981+983+1004_YDSAVDCICQPSIFVIFHDTQALPTHLITCEHVPR (UniProt Q53GL7) | -0.174 | 0.0281
PADI2_Q9Y2J8_629_GLLEPLGLECTFIDDISAYHK (UniProt Q9Y2J8) | 0.0551 | 0.0618
OPHN1_O60890_24_CYEQELER (UniProt O60890) | 0.0531 | 0.0319
PARP14_Q460N5_351+353_CHCELTWSQLSGK (UniProt Q460N5) | 0.0483 | 0.0107
P3H1_Q32P28_591_DDSHPVHVDNCILNAETLVCVK (UniProt Q32P28) | 0.0787 | 0.108
PARG_Q86W56_397_LPGNISSLNVECR (UniProt Q86W56) | 0.0868 | -0.0236
P4HB_P07237_53+56_YLLVEFYAPWCGHCK (UniProt P07237) | -0.316 | -0.77
PAICS_P22234_81+91_CGETAFIAPQCEMIPIEWVCR (UniProt P22234) | -0.528 | -0.284
OSBPL1A_Q9BXW6_182_TTELTALLNRPNPPDVNCSDQLGNTPLHCAAYR (UniProt Q9BXW6) | -0.0584 | -0.0148
OSBPL8_Q9BZF1_494_CLWIHPR (UniProt Q9BZF1) | -0.096 | 0.00681
PAPSS1_O43252_165_QIHEGASLPFFEVFVDAPLHVCEQR (UniProt O43252) | 0.197 | 0.0965
OPA1_O60313_551_NLSLAVSDCFWK (UniProt O60313) | -0.0381 | -0.00771
PAK4_O96013_462_LSDFGFCAQVSK (UniProt O96013) | 0.0425 | 0.0187

Looked up one by one from above, three records:
Target | probe-labelled cysteine peptide fold change (10 µM) | probe-labelled cysteine peptide fold change (50 µM)
OPA1_O60313_551_NLSLAVSDCFWK (UniProt O60313) | -0.0381 | -0.00771
OSBPL8_Q9BZF1_494_CLWIHPR (UniProt Q9BZF1) | -0.096 | 0.00681
PARG_Q86W56_397_LPGNISSLNVECR (UniProt Q86W56) | 0.0868 | -0.0236

Following part.

Target | probe-labelled cysteine peptide fold change (10 µM) | probe-labelled cysteine peptide fold change (50 µM)
OSBPL1A_Q9BXW6_303_CFDDTIHGFRVPK (UniProt Q9BXW6) | -0.201 | -0.0857
PARP14_Q460N5_42_SGGGECEVR (UniProt Q460N5) | -0.126 | -0.097
P4HTM_Q9NXG6_156_TLSLKPLLFEIPGFLTDEECR (UniProt Q9NXG6) | -0.153 | 0.0582
OPLAH_O14841_1053_DIPLNQGCLAPVR (UniProt O14841) | -0.146 | 0.136
PARG_Q86W56_608_IALCLPNICTQPIPLLK (UniProt Q86W56) | 0.0871 | 0.101
PARP14_Q460N5_849_AAGPELQADCDQIVK (UniProt Q460N5) | -0.027 | -0.253
OSBPL2_Q9H1P3_273_CVLHFKPCGLFGK (UniProt Q9H1P3) | -0.023 | 0.205
OPLAH_O14841_408_LLPASFPCIFGPGENQPLSPEASR (UniProt O14841) | -0.283 | -0.252
P4HA1_P13674_167_SFLTAEDCFELGK (UniProt P13674) | 0.088 | 0.0677
PARP10_Q53GL7_983+1004_YDSAVDCICQPSIFVIFHDTQALPTHLITCEHVPR (UniProt Q53GL7) | -0.288 | -0.306
P4HA1_P13674_503_HAACPVLVGNK (UniProt P13674) | 0.108 | 0.139
PAF1_Q8N7H5_218_MWINPCAQVIFDSDPAPK (UniProt Q8N7H5) | -0.103 | -0.0459
PAFAH1B2_P68402_188_LANVQLLDTDGGFVHSDGAISCHDMFDFLHLTGGGYAK (UniProt P68402) | 0.213 | -0.342
OSBPL1A_Q9BXW6_739+746_CVLNFKPCGLFGK (UniProt Q9BXW6) | -0.0308 | -0.0556
P3H1_Q32P28_123_CLGPPAAHSLSEEMELEFR (UniProt Q32P28) | 0.411 | 0.646
PA2G4_Q9UQ80_85_GIAFPTSISVNNCVCHFSPLK (UniProt Q9UQ80) | 0.00904 | -0.193
OPHN1_O60890_11_GHPPLEFSDCYLDSPDFR (UniProt O60890) | 0.12 | -0.178
PAPSS1_O43252_212_TDSCDVNDCVQQVVELLQER (UniProt O43252) | -0.323 | -0.237
PAK1IP1_Q9NWT1_106_HLISGAEDGLICIWDAK (UniProt Q9NWT1) | 0.0804 | 0.269
PARP10_Q53GL7_50_LGCGGVLTFREPADAER (UniProt Q53GL7) | -0.0676 | 0.0285
